These are yes or no findings as the source states them, for the method shown. Some binding calls cover weakened binding; strength is not graded here. Where a sequence is shown, tags or fusion partners need not be part of it.

The assay has as its target T1, Thermus thermophilus DNA gyrase subunit A (GyrA), as it stands in GyrBA-fus (Thermus thermophilus) (UniProt Q5SIL4).
T1 sequence: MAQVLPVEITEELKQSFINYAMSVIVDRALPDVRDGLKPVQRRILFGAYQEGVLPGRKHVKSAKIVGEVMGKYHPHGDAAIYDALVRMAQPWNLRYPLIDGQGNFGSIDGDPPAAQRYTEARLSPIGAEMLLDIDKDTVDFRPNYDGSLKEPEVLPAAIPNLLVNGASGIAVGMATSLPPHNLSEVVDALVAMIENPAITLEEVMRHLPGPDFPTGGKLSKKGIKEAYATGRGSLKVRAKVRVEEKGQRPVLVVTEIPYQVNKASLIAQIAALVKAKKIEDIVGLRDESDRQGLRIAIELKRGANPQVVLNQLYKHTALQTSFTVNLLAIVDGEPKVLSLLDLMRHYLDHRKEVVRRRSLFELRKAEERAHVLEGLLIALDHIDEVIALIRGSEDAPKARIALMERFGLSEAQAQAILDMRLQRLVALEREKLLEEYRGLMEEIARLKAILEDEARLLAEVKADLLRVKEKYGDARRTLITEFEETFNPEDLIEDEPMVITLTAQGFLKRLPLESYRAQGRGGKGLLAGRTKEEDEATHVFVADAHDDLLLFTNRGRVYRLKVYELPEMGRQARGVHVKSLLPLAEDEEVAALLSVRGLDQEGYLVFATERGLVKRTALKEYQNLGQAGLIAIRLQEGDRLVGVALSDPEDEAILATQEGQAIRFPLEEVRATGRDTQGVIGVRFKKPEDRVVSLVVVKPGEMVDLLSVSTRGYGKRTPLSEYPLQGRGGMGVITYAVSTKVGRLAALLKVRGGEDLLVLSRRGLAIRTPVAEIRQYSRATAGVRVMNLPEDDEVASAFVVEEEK
In words: cryo-EM structure; DNA-bound complex: GyrBA-fus with 155 bp DNA, ciprofloxacin and ADPNP; single-particle reconstruction, no symmetry applied, 23 A (FSC 0.5); crystal structures of homologous domains fitted; both purified.

B1: Thermus thermophilus DNA gyrase subunit A (GyrA), as it stands in GyrBA-fus (enzyme, UniProt Q5SIL4 1-805)
chain: MAQVLPVEITEELKQSFINYAMSVIVDRALPDVRDGLKPVQRRILFGAYQEGVLPGRKHVKSAKIVGEVMGKYHPHGDAAIYDALVRMAQPWNLRYPLIDGQGNFGSIDGDPPAAQRYTEARLSPIGAEMLLDIDKDTVDFRPNYDGSLKEPEVLPAAIPNLLVNGASGIAVGMATSLPPHNLSEVVDALVAMIENPAITLEEVMRHLPGPDFPTGGKLSKKGIKEAYATGRGSLKVRAKVRVEEKGQRPVLVVTEIPYQVNKASLIAQIAALVKAKKIEDIVGLRDESDRQGLRIAIELKRGANPQVVLNQLYKHTALQTSFTVNLLAIVDGEPKVLSLLDLMRHYLDHRKEVVRRRSLFELRKAEERAHVLEGLLIALDHIDEVIALIRGSEDAPKARIALMERFGLSEAQAQAILDMRLQRLVALEREKLLEEYRGLMEEIARLKAILEDEARLLAEVKADLLRVKEKYGDARRTLITEFEETFNPEDLIEDEPMVITLTAQGFLKRLPLESYRAQGRGGKGLLAGRTKEEDEATHVFVADAHDDLLLFTNRGRVYRLKVYELPEMGRQARGVHVKSLLPLAEDEEVAALLSVRGLDQEGYLVFATERGLVKRTALKEYQNLGQAGLIAIRLQEGDRLVGVALSDPEDEAILATQEGQAIRFPLEEVRATGRDTQGVIGVRFKKPEDRVVSLVVVKPGEMVDLLSVSTRGYGKRTPLSEYPLQGRGGMGVITYAVSTKVGRLAALLKVRGGEDLLVLSRRGLAIRTPVAEIRQYSRATAGVRVMNLPEDDEVASAFVVEEEK
Consider B1, for which the binding entry was “binds”.

Values taken from paper PMC3763546, “Structural insight into negative DNA supercoiling by DNA gyrase, a bacterial type 2A DNA topoisomerase” (Nucleic Acids Research, 2013).
